From patent US5683867, “Systematic evolution of ligands by exponential enrichment: blended SELEX” (NeXstar Pharmaceuticals, Inc.)

How the values were obtained:
thrombin (Homo sapiens) = test: inhibition of the protein; settings: 3' four 18-atom ethylene glycol spacers and thiol coupled to N-methoxysuccinyl-Ala-Ala-Pro-Val-chloromethyl ketone; no detectable inhibition at 650 nM; purified native protein; single-stranded DNA; variant of DNA-17
[1] = target: T1, neutrophil elastase (HNE) (Homo sapiens) (UniProt P08246); test: binding assay; settings: CITED from US application 08/199,507; purified native protein; single-stranded DNA
T1 sequence (looked up, limits assumed): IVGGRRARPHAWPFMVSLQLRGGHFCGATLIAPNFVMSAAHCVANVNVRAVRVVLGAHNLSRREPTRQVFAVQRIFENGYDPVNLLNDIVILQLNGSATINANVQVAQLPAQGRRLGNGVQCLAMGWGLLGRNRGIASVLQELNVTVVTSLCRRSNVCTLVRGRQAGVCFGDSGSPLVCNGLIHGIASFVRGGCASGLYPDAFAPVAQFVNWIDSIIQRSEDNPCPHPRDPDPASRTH

Sequence | functional effect of the aptamer (thrombin (Homo sapiens)) | pKd [1]
TAGCGATACTGCGTGGGTTGGGGCGGGTAGGGCCAGCAGTCTCGTGCGGTACTTGAGCA [DNA-17 3'-end peptide conjugate] | not active | 
TAGCGATACTGCGTGGGTTGGGGCGGGTAGGGCCAGCAGTCTCGTGCGGTACTTGAGCA [DNA-17] |  | 7.82

pKd: −log10 of the molar value. For some assays here: Negatives hold for the conditions tested. For some assays here: Construct, isoform or probe ends are uncertain for at least one entry. For some assays here: Where a protein sequence is shown, tags need not be part of it.
